PubChem BioAssay AID1224828 – NIAID – 2016
The deposit covers about 17,000 reagents; this is a part drawn at random. Over the whole deposit, 762 (4.5%) are marked active. 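Active calls include both raised and lowered p65 entry, mostly lowered; wells with fewer than 50 cells lack a z-score.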 Raw values are not corrected between plates. A number with no mark means an inactive call. Reagents against one gene are numbered here. No sequences are given here.

Test: 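Find genes required for NF-kappaB p65 moving into the nucleus after LPS in mouse macrophages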 (primary screen)
Cell system: mouse RAW264.7 G9 macrophage reporter cells (GFP-p65, Tnf promoter-mCherry)
Reagents: siRNA pool against mouse genes, 100 nM
Duration: 2 days siRNA transfection, then 40 min LPS before fixation
Conditions: LPS (Salmonella minnesota R595) at 10 ng/ml
Read-out: 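Microscopy ratio of nuclear to perinuclear-ring GFP-p65 signal, scaled to the plate median; gene score is the average of two replicate robust z-scores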
Reading the numbers: p65 translocation robust z-score: higher = more nuclear NF-kappaB p65 after LPS than the plate median; nuclear/cytoplasmic p65 ratio: higher = more nuclear NF-kappaB p65
Rule for the call: 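Active if robust z is above 3.3 (negative regulators) or below -1.56, the Tlr4 control median (positive regulators); activity score 50 or more; control wells not called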
Meaning of the calls: active = hit (p65 shift raised or lowered); inactive = no clear change

The first 4 entries as a preview:
p65 translocation robust z-score,"nuclear/cytoplasmic p65 ratio, rep 1","nuclear/cytoplasmic p65 ratio, rep 2",low cell count flag,gene symbol,reagent no.
-2.07 (active),1.01,1.24,enough cells to score,Bhmt,1
0.64,1.82,1.46,enough cells to score,Cnnm1,1
0.76,1.98,1.64,enough cells to score,Mrpl4,1
-0.69,1.45,1.41,enough cells to score,Epn2,1

Results, from the start:
p65 translocation robust z-score,"nuclear/cytoplasmic p65 ratio, rep 1","nuclear/cytoplasmic p65 ratio, rep 2",low cell count flag,gene symbol,reagent no.
-2.07 (active),1.01,1.24,enough cells to score,Bhmt,1
0.64,1.82,1.46,enough cells to score,Cnnm1,1
0.76,1.98,1.64,enough cells to score,Mrpl4,1
-0.69,1.45,1.41,enough cells to score,Epn2,1
1.37,1.61,1.42,enough cells to score,Pcdhga6,1
,0,1.23,fewer than 50 cells per well; well left out of scoring,Psmc3,1
0.33,1.27,1.35,enough cells to score,Vxn,1
-0.51,1.48,1.66,enough cells to score,AI467606,1
0.43,1.61,1.52,enough cells to score,Trim24,1
-0.9,1.45,1.33,enough cells to score,Rad51d,1
-1.66 (active),1.23,1.08,enough cells to score,Dnal4,1
0.94,1.59,1.56,enough cells to score,Tmem87a,1
,1.34,1.24,fewer than 50 cells per well; well left out of scoring,Lpar3,1
1.9,1.62,1.68,enough cells to score,Hivep1,1
-2.11 (active),1.34,1.26,enough cells to score,Gzmc,1
-2.19 (active),1.34,1.11,enough cells to score,Dgki,1
,1.28,1.21,fewer than 50 cells per well; well left out of scoring,Tbc1d19,1
2.49,1.78,1.73,enough cells to score,Dvl3,1
-0.26,1.58,1.58,enough cells to score,Arnt,1
-0.8,1.35,1.16,enough cells to score,Or52s1,1
1.74,1.75,1.86,enough cells to score,Sema4d,1
,1.36,1.3,fewer than 50 cells per well; well left out of scoring,Or1n1,1
0.69,1.45,1.33,enough cells to score,Best2,1
-0.21,1.61,1.55,enough cells to score,Atf7ip2,1
-0.49,1.46,1.81,enough cells to score,Atf7ip2,2
0.76,1.62,1.72,enough cells to score,Rbm34,1
0.22,1.57,1.92,enough cells to score,BC016548,1
-1.61 (active),1.08,1.1,enough cells to score,Vmp1,1
0.56,1.66,1.52,enough cells to score,Xk,1
-1.2,1.34,1.58,enough cells to score,Opn1mw,1
-0.64,1.56,1.5,enough cells to score,Magea7-ps,1
,1.6,1.28,fewer than 50 cells per well; well left out of scoring,Ubfd1,1
0.96,1.61,1.5,enough cells to score,Cxcl5,1
-0.11,1.39,1.51,enough cells to score,Mia3,1
,1.84,1.17,fewer than 50 cells per well; well left out of scoring,Or5p51,1
-0.41,1.55,1.62,enough cells to score,Abca8b,1
1.87,1.85,1.59,enough cells to score,Etv3,1
0.53,1.24,1.44,enough cells to score,Ccnt2,1
-1,1.39,1.38,enough cells to score,Fbxl8,1
-0.63,1.57,1.32,enough cells to score,Fv1,1
